{"source": "the supplement of paper PMC8728848", "assay_in_all_cases": "glycan array binding signal (z-score within array); higher = stronger binding", "details_in_all_cases": "glycan notation: IUPAC condensed, linker removed", "key": {"Gal3S(b1-4)Glc": {"molecular_target": "Gal3S(b1-4)Glc", "outline": "(§1)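 Glycan array data came from 3228 arrays in the Consortium for Functional Glycomics database, and only arrays with an available protein sequence were kept. Glycan names were put into IUPAC-condensed notation, and columns mapping to the same glycan were averaged. The binding signal is a within-array Z-score, averaged across arrays of one protein sequence run at different concentrations or buffers and across linkers. A negative Z-score can be read as non-binding.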"}, "Gal3S(b1-4)Glc6S": {"molecular_target": "Gal3S(b1-4)Glc6S", "outline": "as §1"}, "Gal3S(b1-4)GlcNAc": {"molecular_target": "Gal3S(b1-4)GlcNAc", "outline": "as §1"}, "[1]": {"molecular_target": "Gal3S(b1-4)[Fuc(a1-3)]Glc6S", "outline": "as §1"}, "[2]": {"molecular_target": "Gal3S(b1-4)[Fuc(a1-3)]GlcNAc", "outline": "as §1"}, "[3]": {"molecular_target": "Gal3S(b1-4)[Fuc(a1-3)]GlcNAc6S", "outline": "as §1"}, "Gal3S4S(b1-4)GlcNAc": {"molecular_target": "Gal3S4S(b1-4)GlcNAc", "outline": "as §1"}, "Gal3S6S(b1-4)GlcNAc": {"molecular_target": "Gal3S6S(b1-4)GlcNAc", "outline": "as §1"}, "Gal3S6S(b1-4)GlcNAc6S": {"molecular_target": "Gal3S6S(b1-4)GlcNAc6S", "outline": "as §1"}, "Gal4S(b1-4)GlcNAc": {"molecular_target": "Gal4S(b1-4)GlcNAc", "outline": "as §1"}, "Gal4S6S(b1-4)GlcNAc": {"molecular_target": "Gal4S6S(b1-4)GlcNAc", "outline": "as §1"}, "Gal6P(b1-4)GlcNAc": {"molecular_target": "Gal6P(b1-4)GlcNAc", "outline": "as §1"}, "Gal6S(b1-3)GlcNAc": {"molecular_target": "Gal6S(b1-3)GlcNAc", "outline": "as §1"}, "Gal6S(b1-3)GlcNAc6S": {"molecular_target": "Gal6S(b1-3)GlcNAc6S", "outline": "as §1"}, "Gal6S(b1-4)Glc": {"molecular_target": "Gal6S(b1-4)Glc", "outline": "as §1"}, "Gal6S(b1-4)Glc6S": {"molecular_target": "Gal6S(b1-4)Glc6S", "outline": "as §1"}, "Gal6S(b1-4)GlcNAc": {"molecular_target": "Gal6S(b1-4)GlcNAc", "outline": "as §1"}, "Gal6S(b1-4)GlcNAc6S": {"molecular_target": "Gal6S(b1-4)GlcNAc6S", "outline": "as §1"}, "GalNAc(a1-3)Gal": {"molecular_target": "GalNAc(a1-3)Gal", "outline": "as §1"}, "GalNAc(a1-3)GalNAc": {"molecular_target": "GalNAc(a1-3)GalNAc", "outline": "as §1"}, "[4]": {"molecular_target": "GalNAc(a1-3)GalNAc(b1-3)Gal(a1-4)Gal(b1-4)Glc", "outline": "as §1"}, "[5]": {"molecular_target": "GalNAc(a1-3)GalNAc(b1-3)Gal(a1-4)Gal(b1-4)GlcNAc", "outline": "as §1"}, "GalNAc(b1-3)Gal": {"molecular_target": "GalNAc(b1-3)Gal", "outline": "as §1"}, "[6]": {"molecular_target": "GalNAc(b1-3)Gal(a1-4)Gal(b1-4)GlcNAc", "outline": "as §1"}, "[7]": {"molecular_target": "GalNAc(b1-3)Gal(a1-4)Gal(b1-4)GlcNAc(b1-3)Gal(b1-4)Glc", "outline": "as §1"}, "[8]": {"molecular_target": "GalNAc(b1-3)Gal(a1-6)Gal(b1-4)Glc", "outline": "as §1"}, "GalNAc(b1-3)GalNAc": {"molecular_target": "GalNAc(b1-3)GalNAc", "outline": "as §1"}, "GalNAc(b1-3)GlcNAc": {"molecular_target": "GalNAc(b1-3)GlcNAc", "outline": "as §1"}, "GalNAc(b1-4)Gal(b1-4)Glc": {"molecular_target": "GalNAc(b1-4)Gal(b1-4)Glc", "outline": "as §1"}, "GalNAc(b1-4)GlcNAc": {"molecular_target": "GalNAc(b1-4)GlcNAc", "outline": "as §1"}, "[9]": {"molecular_target": "GalNAc(b1-4)GlcNAc(b1-2)Man", "outline": "as §1"}, "[10]": {"molecular_target": "GalNAc(b1-4)GlcNAc(b1-2)Man(a1-3)[GalNAc(b1-4)GlcNAc(b1-2)Man(a1-6)]Man(b1-4)GlcNAc(b1-4)GlcNAc", "outline": "as §1"}, "[11]": {"molecular_target": "GalNAc(b1-4)GlcNAc(b1-3)GalNAc(b1-4)GlcNAc", "outline": "as §1"}, "GalNAc(b1-4)GlcNAc6S": {"molecular_target": "GalNAc(b1-4)GlcNAc6S", "outline": "as §1"}, "GalNAc(b1-6)GalNAc": {"molecular_target": "GalNAc(b1-6)GalNAc", "outline": "as §1"}, "GalNAc3S(b1-4)GlcNAc": {"molecular_target": "GalNAc3S(b1-4)GlcNAc", "outline": "as §1"}, "GalNAc3S(b1-4)GlcNAc3S": {"molecular_target": "GalNAc3S(b1-4)GlcNAc3S", "outline": "as §1"}, "[12]": {"molecular_target": "GalNAc3S(b1-4)[Fuc(a1-3)]GlcNAc", "outline": "as §1"}, "GalNAc4S6S(b1-4)GlcNAc": {"molecular_target": "GalNAc4S6S(b1-4)GlcNAc", "outline": "as §1"}, "GalNAc6S(b1-4)GlcNAc": {"molecular_target": "GalNAc6S(b1-4)GlcNAc", "outline": "as §1"}, "Glc(a1-4)Glc": {"molecular_target": "Glc(a1-4)Glc", "outline": "as §1"}, "[13]": {"molecular_target": "Glc(a1-4)Glc(a1-4)Glc(a1-4)Glc", "outline": "as §1"}, "Glc(a1-6)Glc(a1-6)Glc": {"molecular_target": "Glc(a1-6)Glc(a1-6)Glc", "outline": "as §1"}, "[14]": {"molecular_target": "Glc(a1-6)Glc(a1-6)Glc(a1-6)Glc", "outline": "as §1"}, "Glc(b1-4)Glc": {"molecular_target": "Glc(b1-4)Glc", "outline": "as §1"}}, "note": "The list shows a part of the results.", "data": [{"binder": "Clone646PsrP (Streptococcus pneumoniae) (protein) MDHHHHHHHHASENLYFQGAPAINASLNIAKSETKVYTGEGVDSVYRVPIYYKLKVTNDGSKLTFTYTVTYVNPKTNDLGNISSMRPGYSIYNSGTSTQTMLTLGSDLGKPSGVKNYITDKNGRQVLSYNTSTMTTQGSGYTWGNGAQMNGFFAKKGYGLTSSWTVPITGTDTSFTFTPYAARTDRIGINYFNGGGKVVESSTTSQSLSQSKSLSVSAS", "values": [{"measurement": "glycan array binding signal (z-score)", "setting": "Gal3S(b1-4)Glc", "value": 1.81}, {"measurement": "glycan array binding signal (z-score)", "setting": "Gal3S(b1-4)Glc6S", "value": 1.63}, {"measurement": "glycan array binding signal (z-score)", "setting": "Gal3S(b1-4)GlcNAc", "value": 1.59}, {"measurement": "glycan array binding signal (z-score)", "setting": "[1]", "value": -0.32}, {"measurement": "glycan array binding signal (z-score)", "setting": "[2]", "value": 0.106}, {"measurement": "glycan array binding signal (z-score)", "setting": "[3]", "value": 3.08}, {"measurement": "glycan array binding signal (z-score)", "setting": "Gal3S4S(b1-4)GlcNAc", "value": 0.998}, {"measurement": "glycan array binding signal (z-score)", "setting": "Gal3S6S(b1-4)GlcNAc", "value": 2.75}, {"measurement": "glycan array binding signal (z-score)", "setting": "Gal3S6S(b1-4)GlcNAc6S", "value": 0.062}, {"measurement": "glycan array binding signal (z-score)", "setting": "Gal4S(b1-4)GlcNAc", "value": -0.195}, {"measurement": "glycan array binding signal (z-score)", "setting": "Gal4S6S(b1-4)GlcNAc", "value": 0.386}, {"measurement": "glycan array binding signal (z-score)", "setting": "Gal6P(b1-4)GlcNAc", "value": -0.539}, {"measurement": "glycan array binding signal (z-score)", "setting": "Gal6S(b1-3)GlcNAc", "value": -0.735}, {"measurement": "glycan array binding signal (z-score)", "setting": "Gal6S(b1-3)GlcNAc6S", "value": 0.489}, {"measurement": "glycan array binding signal (z-score)", "setting": "Gal6S(b1-4)Glc", "value": -0.221}, {"measurement": "glycan array binding signal (z-score)", "setting": "Gal6S(b1-4)Glc6S", "value": 0.678}, {"measurement": "glycan array binding signal (z-score)", "setting": "Gal6S(b1-4)GlcNAc", "value": -0.841}, {"measurement": "glycan array binding signal (z-score)", "setting": "Gal6S(b1-4)GlcNAc6S", "value": -0.885}, {"measurement": "glycan array binding signal (z-score)", "setting": "GalNAc(a1-3)Gal", "value": 1.21}, {"measurement": "glycan array binding signal (z-score)", "setting": "GalNAc(a1-3)GalNAc", "value": -0.836}, {"measurement": "glycan array binding signal (z-score)", "setting": "[4]", "value": -0.265}, {"measurement": "glycan array binding signal (z-score)", "setting": "[5]", "value": -0.546}, {"measurement": "glycan array binding signal (z-score)", "setting": "GalNAc(b1-3)Gal", "value": -0.611}, {"measurement": "glycan array binding signal (z-score)", "setting": "[6]", "value": 0.692}, {"measurement": "glycan array binding signal (z-score)", "setting": "[7]", "value": -0.068}, {"measurement": "glycan array binding signal (z-score)", "setting": "[8]", "value": -0.31}, {"measurement": "glycan array binding signal (z-score)", "setting": "GalNAc(b1-3)GalNAc", "value": 0.568}, {"measurement": "glycan array binding signal (z-score)", "setting": "GalNAc(b1-3)GlcNAc", "value": 0.319}, {"measurement": "glycan array binding signal (z-score)", "setting": "GalNAc(b1-4)Gal(b1-4)Glc", "value": 2.93}, {"measurement": "glycan array binding signal (z-score)", "setting": "GalNAc(b1-4)GlcNAc", "value": 0.961}, {"measurement": "glycan array binding signal (z-score)", "setting": "[9]", "value": 0.546}, {"measurement": "glycan array binding signal (z-score)", "setting": "[10]", "value": -0.393}, {"measurement": "glycan array binding signal (z-score)", "setting": "[11]", "value": -0.716}, {"measurement": "glycan array binding signal (z-score)", "setting": "GalNAc(b1-4)GlcNAc6S", "value": 0.894}, {"measurement": "glycan array binding signal (z-score)", "setting": "GalNAc(b1-6)GalNAc", "value": 0.35}, {"measurement": "glycan array binding signal (z-score)", "setting": "GalNAc3S(b1-4)GlcNAc", "value": 2.09}, {"measurement": "glycan array binding signal (z-score)", "setting": "GalNAc3S(b1-4)GlcNAc3S", "value": -0.924}, {"measurement": "glycan array binding signal (z-score)", "setting": "[12]", "value": 0.061}, {"measurement": "glycan array binding signal (z-score)", "setting": "GalNAc4S6S(b1-4)GlcNAc", "value": -0.494}, {"measurement": "glycan array binding signal (z-score)", "setting": "GalNAc6S(b1-4)GlcNAc", "value": 0.113}, {"measurement": "glycan array binding signal (z-score)", "setting": "Glc(a1-4)Glc", "value": 0.46}, {"measurement": "glycan array binding signal (z-score)", "setting": "[13]", "value": 0.871}, {"measurement": "glycan array binding signal (z-score)", "setting": "Glc(a1-6)Glc(a1-6)Glc", "value": -0.401}, {"measurement": "glycan array binding signal (z-score)", "setting": "[14]", "value": 3.01}, {"measurement": "glycan array binding signal (z-score)", "setting": "Glc(b1-4)Glc", "value": 0.666}]}]}
